This passage reports melting temperature shift results from the supplement of paper PMC12595434, “Development of retinoid nuclear receptor pathway antagonists through targeting aldehyde dehydrogenase 1A3” (iScience, 2025).

Sequences of proteins named here, by UniProt entry; tags and fusion partners are left off. A change or cut given only in a name is not applied to a line headed by its entry.
UniProt Q9UIA9: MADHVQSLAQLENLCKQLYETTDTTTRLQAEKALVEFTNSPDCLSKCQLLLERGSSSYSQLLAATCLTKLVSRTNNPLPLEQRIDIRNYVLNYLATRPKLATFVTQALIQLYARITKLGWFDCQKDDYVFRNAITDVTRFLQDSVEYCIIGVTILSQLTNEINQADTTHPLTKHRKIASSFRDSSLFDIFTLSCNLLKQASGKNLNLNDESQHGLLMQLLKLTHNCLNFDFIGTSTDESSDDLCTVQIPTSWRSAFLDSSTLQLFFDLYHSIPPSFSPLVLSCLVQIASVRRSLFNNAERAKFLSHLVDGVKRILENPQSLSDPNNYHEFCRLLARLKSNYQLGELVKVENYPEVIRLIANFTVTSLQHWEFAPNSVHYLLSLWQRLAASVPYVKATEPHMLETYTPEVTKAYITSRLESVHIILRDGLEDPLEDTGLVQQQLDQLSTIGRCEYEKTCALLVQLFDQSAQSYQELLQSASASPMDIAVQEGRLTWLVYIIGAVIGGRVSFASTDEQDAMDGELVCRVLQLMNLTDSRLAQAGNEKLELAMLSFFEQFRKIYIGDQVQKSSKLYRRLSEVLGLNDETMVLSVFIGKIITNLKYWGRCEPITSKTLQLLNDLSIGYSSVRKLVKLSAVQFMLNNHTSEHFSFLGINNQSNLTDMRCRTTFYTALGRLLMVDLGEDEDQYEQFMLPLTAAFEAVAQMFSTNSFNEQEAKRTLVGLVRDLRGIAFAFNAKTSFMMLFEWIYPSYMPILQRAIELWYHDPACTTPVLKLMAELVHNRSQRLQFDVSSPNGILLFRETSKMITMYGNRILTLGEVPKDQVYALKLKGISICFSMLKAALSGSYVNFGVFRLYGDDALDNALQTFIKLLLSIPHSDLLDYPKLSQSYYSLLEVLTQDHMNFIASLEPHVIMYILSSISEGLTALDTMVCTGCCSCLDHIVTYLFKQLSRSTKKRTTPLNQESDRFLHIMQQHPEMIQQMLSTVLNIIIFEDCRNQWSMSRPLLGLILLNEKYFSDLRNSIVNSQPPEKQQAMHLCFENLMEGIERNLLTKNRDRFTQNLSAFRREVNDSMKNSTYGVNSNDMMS
UniProt Q9UK73, whole entry: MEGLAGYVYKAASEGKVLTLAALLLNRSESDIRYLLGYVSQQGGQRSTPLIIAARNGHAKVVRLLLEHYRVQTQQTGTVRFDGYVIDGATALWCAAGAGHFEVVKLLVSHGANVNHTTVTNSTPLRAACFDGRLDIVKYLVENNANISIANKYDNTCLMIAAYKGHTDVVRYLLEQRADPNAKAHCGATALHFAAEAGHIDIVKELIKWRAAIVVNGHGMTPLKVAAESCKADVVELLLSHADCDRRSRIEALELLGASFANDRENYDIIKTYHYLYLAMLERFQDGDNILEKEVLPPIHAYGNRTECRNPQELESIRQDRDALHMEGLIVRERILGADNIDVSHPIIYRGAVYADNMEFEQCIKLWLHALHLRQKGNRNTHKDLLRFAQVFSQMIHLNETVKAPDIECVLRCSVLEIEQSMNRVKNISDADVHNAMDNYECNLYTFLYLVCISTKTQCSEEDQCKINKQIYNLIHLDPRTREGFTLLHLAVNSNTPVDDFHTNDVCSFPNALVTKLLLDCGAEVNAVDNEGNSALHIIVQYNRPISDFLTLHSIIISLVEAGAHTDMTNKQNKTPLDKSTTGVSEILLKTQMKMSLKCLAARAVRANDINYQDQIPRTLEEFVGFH
UniProt Q9UKV8, whole entry: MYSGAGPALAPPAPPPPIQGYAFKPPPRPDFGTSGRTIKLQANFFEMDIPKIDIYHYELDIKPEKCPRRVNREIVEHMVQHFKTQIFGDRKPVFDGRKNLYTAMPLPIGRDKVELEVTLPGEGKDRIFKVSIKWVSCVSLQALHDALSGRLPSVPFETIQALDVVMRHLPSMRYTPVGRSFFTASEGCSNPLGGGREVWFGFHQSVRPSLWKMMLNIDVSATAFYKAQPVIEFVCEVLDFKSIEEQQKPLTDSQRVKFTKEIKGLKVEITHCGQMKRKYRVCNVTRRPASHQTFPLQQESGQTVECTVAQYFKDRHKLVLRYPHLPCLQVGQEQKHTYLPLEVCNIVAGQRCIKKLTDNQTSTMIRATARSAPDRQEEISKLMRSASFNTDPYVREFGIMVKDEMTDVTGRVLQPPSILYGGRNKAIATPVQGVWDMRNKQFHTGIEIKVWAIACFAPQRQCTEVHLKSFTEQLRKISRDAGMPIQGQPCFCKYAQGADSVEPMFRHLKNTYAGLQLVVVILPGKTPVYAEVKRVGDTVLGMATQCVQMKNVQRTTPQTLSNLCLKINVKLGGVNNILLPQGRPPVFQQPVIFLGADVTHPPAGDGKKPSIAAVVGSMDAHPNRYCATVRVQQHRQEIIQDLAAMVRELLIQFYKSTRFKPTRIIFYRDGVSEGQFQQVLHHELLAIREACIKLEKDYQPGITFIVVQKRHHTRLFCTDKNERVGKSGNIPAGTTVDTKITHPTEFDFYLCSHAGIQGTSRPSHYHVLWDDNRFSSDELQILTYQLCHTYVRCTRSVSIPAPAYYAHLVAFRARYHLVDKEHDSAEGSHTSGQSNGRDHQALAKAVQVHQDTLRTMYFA
UniProt Q9UJX4, whole entry: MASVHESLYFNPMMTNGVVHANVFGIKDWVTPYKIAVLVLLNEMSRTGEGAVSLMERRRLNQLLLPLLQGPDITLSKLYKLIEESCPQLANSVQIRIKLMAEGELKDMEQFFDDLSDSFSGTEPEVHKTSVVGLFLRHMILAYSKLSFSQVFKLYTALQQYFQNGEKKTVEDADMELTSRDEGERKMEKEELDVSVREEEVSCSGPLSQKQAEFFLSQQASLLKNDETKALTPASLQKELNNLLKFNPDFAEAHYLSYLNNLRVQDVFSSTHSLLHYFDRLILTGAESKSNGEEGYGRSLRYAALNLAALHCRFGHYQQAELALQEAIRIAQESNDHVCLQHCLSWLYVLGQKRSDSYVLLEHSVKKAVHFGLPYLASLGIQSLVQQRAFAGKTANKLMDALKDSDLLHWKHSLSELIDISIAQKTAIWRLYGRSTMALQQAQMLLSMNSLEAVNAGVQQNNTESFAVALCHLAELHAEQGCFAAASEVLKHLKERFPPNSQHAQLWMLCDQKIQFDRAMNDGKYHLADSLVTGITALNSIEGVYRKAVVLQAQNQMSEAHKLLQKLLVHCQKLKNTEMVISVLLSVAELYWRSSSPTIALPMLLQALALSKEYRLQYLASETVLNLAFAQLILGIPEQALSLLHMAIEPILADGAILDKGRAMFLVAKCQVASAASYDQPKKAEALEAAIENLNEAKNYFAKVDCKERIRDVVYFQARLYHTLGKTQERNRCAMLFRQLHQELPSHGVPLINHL
UniProt Q9UPT6: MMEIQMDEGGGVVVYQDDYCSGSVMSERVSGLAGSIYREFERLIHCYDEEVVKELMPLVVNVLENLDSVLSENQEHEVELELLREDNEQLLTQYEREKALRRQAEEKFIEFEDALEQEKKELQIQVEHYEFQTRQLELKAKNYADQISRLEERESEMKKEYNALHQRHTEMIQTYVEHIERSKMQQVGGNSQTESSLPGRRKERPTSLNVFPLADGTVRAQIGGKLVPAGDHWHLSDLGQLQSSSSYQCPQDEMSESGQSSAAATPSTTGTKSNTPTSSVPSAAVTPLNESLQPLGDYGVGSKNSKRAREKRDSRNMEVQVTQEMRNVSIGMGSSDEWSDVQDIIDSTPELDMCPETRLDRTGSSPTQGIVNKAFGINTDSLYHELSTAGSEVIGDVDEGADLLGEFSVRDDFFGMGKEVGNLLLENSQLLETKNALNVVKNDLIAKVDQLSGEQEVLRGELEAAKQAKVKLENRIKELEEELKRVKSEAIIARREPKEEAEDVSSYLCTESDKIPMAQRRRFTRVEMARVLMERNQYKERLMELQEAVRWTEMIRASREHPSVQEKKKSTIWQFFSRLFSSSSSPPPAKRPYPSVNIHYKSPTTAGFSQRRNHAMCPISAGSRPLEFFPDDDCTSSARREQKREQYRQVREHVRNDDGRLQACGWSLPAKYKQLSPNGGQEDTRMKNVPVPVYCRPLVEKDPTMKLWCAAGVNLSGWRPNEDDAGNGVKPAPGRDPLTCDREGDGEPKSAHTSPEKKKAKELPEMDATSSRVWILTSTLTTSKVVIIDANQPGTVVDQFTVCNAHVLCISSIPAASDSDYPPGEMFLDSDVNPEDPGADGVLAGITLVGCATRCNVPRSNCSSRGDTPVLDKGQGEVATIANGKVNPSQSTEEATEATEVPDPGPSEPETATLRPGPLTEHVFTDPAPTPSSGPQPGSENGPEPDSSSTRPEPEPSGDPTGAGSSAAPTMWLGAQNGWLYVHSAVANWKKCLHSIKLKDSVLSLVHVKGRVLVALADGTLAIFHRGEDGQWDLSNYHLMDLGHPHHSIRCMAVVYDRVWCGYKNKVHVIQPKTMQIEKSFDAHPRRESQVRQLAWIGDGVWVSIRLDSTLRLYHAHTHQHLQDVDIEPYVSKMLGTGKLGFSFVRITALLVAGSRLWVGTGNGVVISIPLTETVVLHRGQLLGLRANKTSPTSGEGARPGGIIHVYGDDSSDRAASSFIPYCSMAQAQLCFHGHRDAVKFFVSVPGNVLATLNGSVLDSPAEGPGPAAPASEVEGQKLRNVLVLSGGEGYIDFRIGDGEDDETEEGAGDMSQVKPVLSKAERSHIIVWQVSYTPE
UniProt Q9UQN3, whole entry: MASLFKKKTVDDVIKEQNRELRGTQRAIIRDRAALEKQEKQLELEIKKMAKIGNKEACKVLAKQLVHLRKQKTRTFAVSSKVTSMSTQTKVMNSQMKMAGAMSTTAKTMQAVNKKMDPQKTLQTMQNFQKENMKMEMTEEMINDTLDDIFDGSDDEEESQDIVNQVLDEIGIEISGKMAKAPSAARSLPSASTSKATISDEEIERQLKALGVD
UniProt Q9UIC8: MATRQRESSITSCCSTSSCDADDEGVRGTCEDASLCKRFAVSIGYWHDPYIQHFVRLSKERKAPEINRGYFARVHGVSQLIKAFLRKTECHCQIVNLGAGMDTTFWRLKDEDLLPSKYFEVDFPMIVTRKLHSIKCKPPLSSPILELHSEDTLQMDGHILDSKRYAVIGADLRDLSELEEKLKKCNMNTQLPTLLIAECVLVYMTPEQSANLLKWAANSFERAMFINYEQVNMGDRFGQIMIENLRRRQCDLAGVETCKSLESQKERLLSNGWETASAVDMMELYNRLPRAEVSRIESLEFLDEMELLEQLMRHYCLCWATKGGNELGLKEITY
UniProt Q9Y224: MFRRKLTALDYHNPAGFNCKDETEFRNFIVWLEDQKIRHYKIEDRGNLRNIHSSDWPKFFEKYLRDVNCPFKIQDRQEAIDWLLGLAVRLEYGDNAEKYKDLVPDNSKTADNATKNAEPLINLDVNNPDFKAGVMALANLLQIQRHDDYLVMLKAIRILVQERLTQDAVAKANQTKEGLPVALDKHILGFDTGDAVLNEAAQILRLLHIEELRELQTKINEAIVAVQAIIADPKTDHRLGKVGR
UniProt Q9UJA5: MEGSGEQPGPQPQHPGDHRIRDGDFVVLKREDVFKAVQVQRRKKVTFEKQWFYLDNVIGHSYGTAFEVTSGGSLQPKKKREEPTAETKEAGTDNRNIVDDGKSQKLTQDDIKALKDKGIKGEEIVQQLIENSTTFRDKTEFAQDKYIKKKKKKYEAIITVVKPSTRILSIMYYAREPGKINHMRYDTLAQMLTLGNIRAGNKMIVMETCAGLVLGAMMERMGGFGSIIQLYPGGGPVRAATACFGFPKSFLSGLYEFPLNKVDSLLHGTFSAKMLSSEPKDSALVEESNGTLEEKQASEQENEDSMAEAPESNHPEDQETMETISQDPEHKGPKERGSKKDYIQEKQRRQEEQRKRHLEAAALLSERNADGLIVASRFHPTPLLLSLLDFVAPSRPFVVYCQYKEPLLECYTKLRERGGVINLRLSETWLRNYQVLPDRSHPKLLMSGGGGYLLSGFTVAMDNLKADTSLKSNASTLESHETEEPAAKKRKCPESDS
UniProt Q9UNF0: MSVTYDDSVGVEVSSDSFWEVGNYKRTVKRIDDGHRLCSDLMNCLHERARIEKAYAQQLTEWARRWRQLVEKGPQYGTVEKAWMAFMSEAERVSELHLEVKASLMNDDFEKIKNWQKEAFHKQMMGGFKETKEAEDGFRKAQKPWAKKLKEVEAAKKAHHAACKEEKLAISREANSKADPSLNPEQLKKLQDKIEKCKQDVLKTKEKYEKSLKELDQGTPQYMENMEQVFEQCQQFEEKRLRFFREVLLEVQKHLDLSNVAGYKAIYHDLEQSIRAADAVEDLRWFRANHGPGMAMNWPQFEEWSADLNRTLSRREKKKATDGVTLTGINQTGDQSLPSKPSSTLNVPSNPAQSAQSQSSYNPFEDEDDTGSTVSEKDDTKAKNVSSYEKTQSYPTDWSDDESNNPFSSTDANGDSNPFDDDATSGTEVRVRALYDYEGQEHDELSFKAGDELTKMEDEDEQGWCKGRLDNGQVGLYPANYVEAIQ
UniProt Q9UHA4, whole entry: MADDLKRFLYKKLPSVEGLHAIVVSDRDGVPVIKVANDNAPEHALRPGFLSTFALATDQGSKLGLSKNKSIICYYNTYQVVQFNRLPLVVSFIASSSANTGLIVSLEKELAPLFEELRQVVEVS

The other results are listed elsewhere or left out. This is a noisy data set.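 Tm was set to 64 °C where no melting was found, and many curves are irregular.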

Compound in this experiment: CCc1cnccc1C(=O)Nc1cc2c(cc1F)NC(=O)CC2
The experiment is described as follows: melting temperature shift (DMSO Tm minus MBE1-treated Tm) in cellular thermal proteome profiling; higher = less thermal stabilization by MBE1 (negative = stabilized by MBE1). As to conditions: A375.

XPO7 (UniProt Q9UIA9): the melting temperature shift runs as follows: (MBE1 concentration: 100 nM) -0.188 °C; (MBE1 concentration: 1 uM) -0.221 °C.

Turning to UniProt Q9UHB7, the melting temperature shift was -1.15 °C (MBE1 concentration: 100 nM) and -0.41 °C (MBE1 concentration: 1 uM).

As for EIF2B4 (UniProt Q9UI10), the melting temperature shift was -0.318 °C (MBE1 concentration: 100 nM) and 0.104 °C (MBE1 concentration: 1 uM).

Turning to TRMT112 (UniProt Q9UI30), the melting temperature shift by setting is: (MBE1 concentration: 100 nM) -1.41 °C; (MBE1 concentration: 1 uM) -0.421 °C.

Consider FEM1B (UniProt Q9UK73), for which the melting temperature shift reads like this: (MBE1 concentration: 100 nM) -0.937 °C; (MBE1 concentration: 1 uM) 0.379 °C.

Take AGO2 (UniProt Q9UKV8): the melting temperature shift is, setting by setting: (MBE1 concentration: 100 nM) 0.763 °C; (MBE1 concentration: 1 uM) 0.409 °C.

With POFUT2 (UniProt Q9Y2G5), the melting temperature shift (MBE1 concentration: 100 nM) turned out to be 0.168 °C and the melting temperature shift (MBE1 concentration: 1 uM) was -0.201 °C.

As to ANAPC5 (UniProt Q9UJX4), the melting temperature shift (MBE1 concentration: 100 nM) is 0.904 °C and the melting temperature shift (MBE1 concentration: 1 uM) worked out at 0.617 °C.

With INPP5F (UniProt Q9Y2H2), the melting temperature shift is, setting by setting: (MBE1 concentration: 100 nM) -1.11 °C; (MBE1 concentration: 1 uM) -0.605 °C.

Consider ANAPC7 (UniProt Q9UJX3), for which the melting temperature shift was 0.0183 °C (MBE1 concentration: 100 nM) and -0.00611 °C (MBE1 concentration: 1 uM).

As to UniProt Q9UPT6, the melting temperature shift (MBE1 concentration: 100 nM) was -0.147 °C and the melting temperature shift (MBE1 concentration: 1 uM) was 0.0733 °C.

On to DDX41 (UniProt Q9UJV9), for which the melting temperature shift was -0.275 °C (MBE1 concentration: 100 nM) and -0.0384 °C (MBE1 concentration: 1 uM).

Turning to CHMP2B (UniProt Q9UQN3), the melting temperature shift runs as follows: (MBE1 concentration: 100 nM) -1.72 °C; (MBE1 concentration: 1 uM) 13.7 °C.

In the case of LCMT1 (UniProt Q9UIC8), the melting temperature shift by setting is: (MBE1 concentration: 100 nM) -0.986 °C; (MBE1 concentration: 1 uM) 0.104 °C.

C14ORF166 (UniProt Q9Y224): the melting temperature shift (MBE1 concentration: 100 nM) amounted to 1.45 °C and the melting temperature shift (MBE1 concentration: 1 uM) was found to be 0.855 °C.

Regarding TRMT6 (UniProt Q9UJA5), the melting temperature shift was -1.01 °C (MBE1 concentration: 100 nM) and 0.385 °C (MBE1 concentration: 1 uM).

For the target TMEM2 (UniProt Q9UHN6), the melting temperature shift (MBE1 concentration: 100 nM) was -3.6 °C and the melting temperature shift (MBE1 concentration: 1 uM) is -4.05 °C.

As for GNE (UniProt Q9Y223), the melting temperature shift was -1.37 °C (MBE1 concentration: 100 nM) and -0.983 °C (MBE1 concentration: 1 uM).

Take NAGK (UniProt Q9UJ70): the melting temperature shift was -0.818 °C (MBE1 concentration: 100 nM) and 0.299 °C (MBE1 concentration: 1 uM).

With UniProt Q9ULX9, the melting temperature shift is 2.11 °C (MBE1 concentration: 100 nM) and -0.189 °C (MBE1 concentration: 1 uM).

As to PACSIN2 (UniProt Q9UNF0), the melting temperature shift (MBE1 concentration: 100 nM) was -0.0122 °C and the melting temperature shift (MBE1 concentration: 1 uM) was found to be 0.165 °C.

Consider UniProt Q9UI43, for which the melting temperature shift by setting is: (MBE1 concentration: 100 nM) -0.446 °C; (MBE1 concentration: 1 uM) 0.104 °C.

LAMTOR3 (UniProt Q9UHA4): the melting temperature shift (MBE1 concentration: 100 nM) was 0.585 °C and the melting temperature shift (MBE1 concentration: 1 uM) is 1.64 °C.

With SCAF8 (UniProt Q9UPN6), the melting temperature shift was -0.474 °C (MBE1 concentration: 100 nM) and -0.295 °C (MBE1 concentration: 1 uM).

Take SLC25A13 (UniProt Q9UJS0): the melting temperature shift is -1.58 °C (MBE1 concentration: 100 nM) and 0.14 °C (MBE1 concentration: 1 uM).
